Laboratory results taken from paper PMC5966407.
These are yes or no findings as the source states them, for the method shown. In cells and extracts the contact can be indirect. Some results given as binding are weak or reduced against the parent protein; the word gives no strength. Values belong to the binder of their own block, whether it stands above or below them.

Amino acid sequences for entries named in this document (tags omitted).
UniProt Q8IY92: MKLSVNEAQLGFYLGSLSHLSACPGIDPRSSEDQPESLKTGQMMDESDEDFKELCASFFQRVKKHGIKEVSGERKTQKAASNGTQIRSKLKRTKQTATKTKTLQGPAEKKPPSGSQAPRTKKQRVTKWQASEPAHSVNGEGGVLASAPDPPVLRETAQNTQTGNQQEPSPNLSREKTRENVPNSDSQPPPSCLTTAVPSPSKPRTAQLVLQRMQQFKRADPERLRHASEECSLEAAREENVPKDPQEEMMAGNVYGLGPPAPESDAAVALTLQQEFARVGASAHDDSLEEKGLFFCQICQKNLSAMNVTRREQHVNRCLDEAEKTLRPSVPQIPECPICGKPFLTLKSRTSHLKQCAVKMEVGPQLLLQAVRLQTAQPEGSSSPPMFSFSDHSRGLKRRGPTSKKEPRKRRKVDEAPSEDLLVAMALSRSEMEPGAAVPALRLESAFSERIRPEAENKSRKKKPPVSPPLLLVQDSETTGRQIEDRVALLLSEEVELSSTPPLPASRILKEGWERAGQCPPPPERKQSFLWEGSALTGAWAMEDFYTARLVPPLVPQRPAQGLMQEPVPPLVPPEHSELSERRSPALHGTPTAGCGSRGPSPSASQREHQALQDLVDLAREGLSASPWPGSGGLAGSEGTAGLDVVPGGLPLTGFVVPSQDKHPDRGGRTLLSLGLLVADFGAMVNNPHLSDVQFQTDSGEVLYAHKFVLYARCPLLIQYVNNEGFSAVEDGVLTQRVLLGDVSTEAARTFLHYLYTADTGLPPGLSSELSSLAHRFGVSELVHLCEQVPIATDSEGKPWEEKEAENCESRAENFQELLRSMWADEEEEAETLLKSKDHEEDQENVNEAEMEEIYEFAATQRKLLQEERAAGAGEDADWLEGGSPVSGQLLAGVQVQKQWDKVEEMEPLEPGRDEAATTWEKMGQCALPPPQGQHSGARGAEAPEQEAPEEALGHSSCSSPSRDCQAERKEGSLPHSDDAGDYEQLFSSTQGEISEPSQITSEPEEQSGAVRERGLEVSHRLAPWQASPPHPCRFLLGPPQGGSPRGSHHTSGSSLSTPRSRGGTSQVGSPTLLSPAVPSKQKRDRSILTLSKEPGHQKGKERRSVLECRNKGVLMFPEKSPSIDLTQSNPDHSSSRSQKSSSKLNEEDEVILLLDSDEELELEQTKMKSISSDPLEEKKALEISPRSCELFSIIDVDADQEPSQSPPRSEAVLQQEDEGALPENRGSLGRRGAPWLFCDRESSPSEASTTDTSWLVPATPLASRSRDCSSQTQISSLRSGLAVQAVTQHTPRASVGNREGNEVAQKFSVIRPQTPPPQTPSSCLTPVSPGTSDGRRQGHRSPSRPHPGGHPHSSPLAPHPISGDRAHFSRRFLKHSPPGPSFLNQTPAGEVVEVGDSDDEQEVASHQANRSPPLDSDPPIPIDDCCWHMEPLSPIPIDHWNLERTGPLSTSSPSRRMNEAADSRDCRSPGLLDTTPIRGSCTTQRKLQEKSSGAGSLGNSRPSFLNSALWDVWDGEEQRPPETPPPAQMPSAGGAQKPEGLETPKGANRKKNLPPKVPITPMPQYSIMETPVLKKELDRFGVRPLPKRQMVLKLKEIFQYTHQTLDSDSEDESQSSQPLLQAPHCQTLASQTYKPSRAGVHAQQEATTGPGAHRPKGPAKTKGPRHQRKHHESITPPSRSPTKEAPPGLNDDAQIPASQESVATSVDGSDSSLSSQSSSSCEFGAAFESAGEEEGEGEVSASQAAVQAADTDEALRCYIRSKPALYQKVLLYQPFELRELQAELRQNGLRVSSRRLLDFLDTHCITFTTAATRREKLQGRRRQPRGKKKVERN
UniProt P22336: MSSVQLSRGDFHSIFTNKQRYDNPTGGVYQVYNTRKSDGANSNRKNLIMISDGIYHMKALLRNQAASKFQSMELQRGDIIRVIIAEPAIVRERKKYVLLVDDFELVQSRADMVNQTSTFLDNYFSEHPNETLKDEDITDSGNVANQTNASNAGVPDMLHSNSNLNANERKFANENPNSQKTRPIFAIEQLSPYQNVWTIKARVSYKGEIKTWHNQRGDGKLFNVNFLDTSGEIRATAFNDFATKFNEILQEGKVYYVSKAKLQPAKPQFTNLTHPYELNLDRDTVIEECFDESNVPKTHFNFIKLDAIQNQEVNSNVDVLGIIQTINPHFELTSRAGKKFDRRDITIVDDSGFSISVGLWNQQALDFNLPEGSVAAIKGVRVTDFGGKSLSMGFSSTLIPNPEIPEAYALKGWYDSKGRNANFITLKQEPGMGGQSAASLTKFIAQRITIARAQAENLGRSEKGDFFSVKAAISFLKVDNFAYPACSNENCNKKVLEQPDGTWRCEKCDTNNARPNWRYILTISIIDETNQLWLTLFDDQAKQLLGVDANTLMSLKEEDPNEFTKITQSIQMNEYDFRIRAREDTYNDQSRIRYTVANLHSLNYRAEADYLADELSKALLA

Key:
[1] = target: RPA1 (endogenous, 293T) (human (endogenous in 293T)), P27694; assay: co-IP; 293T cells transfected with HA tagged XPF variants, 20 μM cisplatin for 2 h or mock; lysis buffer 20 mM Tris-HCl pH 7.2, 100 mM NaCl, 10% glycerol, 1 mM EDTA, 0.1% NP-40, 1% Triton X-100; IP with anti-RPA70 or anti-SLX4 and protein G-agarose; blot with anti-HA; conditions: remark: other sources report otherwise
[2] = target: SLX4 (endogenous, 293T) (human (endogenous in 293T)) (UniProt Q8IY92); assay: as above
[3] = target: TAP-tagged Slx4 (S. cerevisiae) (UniProt Q12098); assay: co-IP; yeast lysate of cells expressing TAP-tagged Slx4 and plasmid-borne Rad1-3HA variants; IgG agarose beads; blot with anti-HA
[4] = target: Rpa1 (yeast), the large subunit of the replication protein A (RPA) complex (S. cerevisiae (endogenous in yeast cells)) (UniProt P22336); assay: co-IP; yeast lysate; C-terminal 3xHA tagged Rad1 variants with Rpa1; blots with anti-HA and anti-Rpa1; which antibody precipitated is not told

B2: XPF-3xHA (protein, UniProt Q92889 1-916)
chain: MESGQPARRIAMAPLLEYERQLVLELLDTDGLVVCARGLGADRLLYHFLQLHCHPACLVLVLNTQPAEEEYFINQLKIEGVEHLPRRVTNEITSNSRYEVYTQGGVIFATSRILVVDFLTDRIPSDLITGILVYRAHRIIESCQEAFILRLFRQKNKRGFIKAFTDNAVAFDTGFCHVERVMRNLFVRKLYLWPRFHVAVNSFLEQHKPEVVEIHVSMTPTMLAIQTAILDILNACLKELKCHNPSLEVEDLSLENAIGKPFDKTIRHYLDPLWHQLGAKTKSLVQDLKILRTLLQYLSQYDCVTFLNLLESLRATEKAFGQNSGWLFLDSSTSMFINARARVYHLPDAKMSKKEKISEKMEIKEGEETKKELVLESNPKWEALTEVLKEIEAENKESEALGGPGQVLICASDDRTCSQLRDYITLGAEAFLLRLYRKTFEKDSKAEEVWMKFRKEDSSKRIRKSHKRPKDPQNKERASTKERTLKKKKRKLTLTQMVGKPEELEEEGDVEEGYRREISSSPESCPEEIKHEEFDVNLSSDAAFGILKEPLTIIHPLLGCSDPYALTRVLHEVEPRYVVLYDAELTFVRQLEIYRASRPGKPLRVYFLIYGGSTEEQRYLTALRKEKEAFEKLIREKASMVVPEEREGRDETNLDLVRGTASADVSTDTRKAGGQEQNGTQQSIVVDMREFRSELPSLIHRRGIDIEPVTLEVGDYILTPEMCVERKSISDLIGSLNNGRLYSQCISMSRYYKRPVLLIEFDPSKPFSLTSRGALFQEISSNDISSKLTLLTLHFPRLRILWCPSPHATAELFEELKQSKPQPDAATALAITADSETLPESEKYNPGPQDFLLKMPGVNAKNCRSLMHHVKNIAELAALSQDELTSILGNAANAKQLYDFIHTSFAEVVSKGKGKK
- binding [2]: binds

B3: Rad1-3HA (protein, UniProt P06777 1-1100)
chain: MSQLFYQGDSDDELQEELTRQTTQASQSSKIKNEDEPDDSNHLNEVENEDSKVLDDDAVLYPLIPNEPDDIETSKPNINDIRPVDIQLTLPLPFQQKVVENSLITEDALIIMGKGLGLLDIVANLLHVLATPTSINGQLKRALVLVLNAKPIDNVRIKEALEELSWFSNTGKDDDDTAVESDDELFERPFNVVTADSLSIEKRRKLYISGGILSITSRILIVDLLSGIVHPNRVTGMLVLNADSLRHNSNESFILEIYRSKNTWGFIKAFSEAPETFVMEFSPLRTKMKELRLKNVLLWPRFRVEVSSCLNATNKTSHNKVIEVKVSLTNSMSQIQFGLMECLKKCIAELSRKNPELALDWWNMENVLDINFIRSIDSVMVPNWHRISYESKQLVKDIRFLRHLLKMLVTSDAVDFFGEIQLSLDANKPSVSRKYSESPWLLVDEAQLVISYAKKRIFYKNEYTLEENPKWEQLIHILHDISHERMTNHLQGPTLVACSDNLTCLELAKVLNASNKKRGVRQVLLNKLKWYRKQREETKKLVKEVQSQDTFPENATLNVSSTFSKEQVTTKRRRTRGASQVAAVEKLRNAGTNVDMEVVFEDHKLSEEIKKGSGDDLDDGQEENAANDSKIFEIQEQENEILIDDGDAEFDNGELEYVGDLPQHITTHFNKDLWAEHCNEYEYVDRQDEILISTFKSLNDNCSLQEMMPSYIIMFEPDISFIRQIEVYKAIVKDLQPKVYFMYYGESIEEQSHLTAIKREKDAFTKLIRENANLSHHFETNEDLSHYKNLAERKLKLSKLRKSNTRNAGGQQGFHNLTQDVVIVDTREFNASLPGLLYRYGIRVIPCMLTVGDYVITPDICLERKSISDLIGSLQNNRLANQCKKMLKYYAYPTLLIEFDEGQSFSLEPFSERRNYKNKDISTVHPISSKLSQDEIQLKLAKLVLRFPTLKIIWSSSPLQTVNIILELKLGREQPDPSNAVILGTNKVRSDFNSTAKGLKDGDNESKFKRLLNVPGVSKIDYFNLRKKIKSFNKLQKLSWNEINELINDEDLTDRIYYFLRTEKEEQEQESTDENLESPGKTTDDNALHDHHNDVPEAPV
- binding [3]: binds
- binding [4]: binds

Now from value to binder:

- binding [1]: binds
B1: XPF-3xHA, Q92889 1-916 (protein)
chain: MESGQPARRIAMAPLLEYERQLVLELLDTDGLVVCARGLGADRLLYHFLQLHCHPACLVLVLNTQPAEEEYFINQLKIEGVEHLPRRVTNEITSNSRYEVYTQGGVIFATSRILVVDFLTDRIPSDLITGILVYRAHRIIESCQEAFILRLFRQKNKRGFIKAFTDNAVAFDTGFCHVERVMRNLFVRKLYLWPRFHVAVNSFLEQHKPEVVEIHVSMTPTMLAIQTAILDILNACLKELKCHNPSLEVEDLSLENAIGKPFDKTIRHYLDPLWHQLGAKTKSLVQDLKILRTLLQYLSQYDCVTFLNLLESLRATEKAFGQNSGWLFLDSSTSMFINARARVYHLPDAKMSKKEKISEKMEIKEGEETKKELVLESNPKWEALTEVLKEIEAENKESEALGGPGQVLICASDDRTCSQLRDYITLGAEAFLLRLYRKTFEKDSKAEEVWMKFRKEDSSKRIRKSHKRPKDPQNKERASTKERTLKKKKRKLTLTQMVGKPEELEEEGDVEEGYRREISSSPESCPEEIKHEEFDVNLSSDAAFGILKEPLTIIHPLLGCSDPYALTRVLHEVEPRYVVLYDAELTFVRQLEIYRASRPGKPLRVYFLIYGGSTEEQRYLTALRKEKEAFEKLIREKASMVVPEEREGRDETNLDLVRGTASADVSTDTRKAGGQEQNGTQQSIVVDMREFRSELPSLIHRRGIDIEPVTLEVGDYILTPEMCVERKSISDLIGSLNNGRLYSQCISMSRYYKRPVLLIEFDPSKPFSLTSRGALFQEISSNDISSKLTLLTLHFPRLRILWCPSPHATAELFEELKQSKPQPDAATALAITADSETLPESEKYNPGPQDFLLKMPGVNAKNCRSLMHHVKNIAELAALSQDELTSILGNAANAKQLYDFIHTSFAEVVSKGKGKK

- binding [3]: binds
B4: rad1-E349K-3HA (protein, UniProt P06777 1-1100)
chain: MSQLFYQGDSDDELQEELTRQTTQASQSSKIKNEDEPDDSNHLNEVENEDSKVLDDDAVLYPLIPNEPDDIETSKPNINDIRPVDIQLTLPLPFQQKVVENSLITEDALIIMGKGLGLLDIVANLLHVLATPTSINGQLKRALVLVLNAKPIDNVRIKEALEELSWFSNTGKDDDDTAVESDDELFERPFNVVTADSLSIEKRRKLYISGGILSITSRILIVDLLSGIVHPNRVTGMLVLNADSLRHNSNESFILEIYRSKNTWGFIKAFSEAPETFVMEFSPLRTKMKELRLKNVLLWPRFRVEVSSCLNATNKTSHNKVIEVKVSLTNSMSQIQFGLMECLKKCIAKLSRKNPELALDWWNMENVLDINFIRSIDSVMVPNWHRISYESKQLVKDIRFLRHLLKMLVTSDAVDFFGEIQLSLDANKPSVSRKYSESPWLLVDEAQLVISYAKKRIFYKNEYTLEENPKWEQLIHILHDISHERMTNHLQGPTLVACSDNLTCLELAKVLNASNKKRGVRQVLLNKLKWYRKQREETKKLVKEVQSQDTFPENATLNVSSTFSKEQVTTKRRRTRGASQVAAVEKLRNAGTNVDMEVVFEDHKLSEEIKKGSGDDLDDGQEENAANDSKIFEIQEQENEILIDDGDAEFDNGELEYVGDLPQHITTHFNKDLWAEHCNEYEYVDRQDEILISTFKSLNDNCSLQEMMPSYIIMFEPDISFIRQIEVYKAIVKDLQPKVYFMYYGESIEEQSHLTAIKREKDAFTKLIRENANLSHHFETNEDLSHYKNLAERKLKLSKLRKSNTRNAGGQQGFHNLTQDVVIVDTREFNASLPGLLYRYGIRVIPCMLTVGDYVITPDICLERKSISDLIGSLQNNRLANQCKKMLKYYAYPTLLIEFDEGQSFSLEPFSERRNYKNKDISTVHPISSKLSQDEIQLKLAKLVLRFPTLKIIWSSSPLQTVNIILELKLGREQPDPSNAVILGTNKVRSDFNSTAKGLKDGDNESKFKRLLNVPGVSKIDYFNLRKKIKSFNKLQKLSWNEINELINDEDLTDRIYYFLRTEKEEQEQESTDENLESPGKTTDDNALHDHHNDVPEAPV
